In this test the target is BRCA1 (endogenous, MCF7) (human (endogenous in MCF7)) (UniProt P38398). As to the kind of experiment: co-IP; endogenous proteins; lysates of MCF7 cells (irradiated or not; nocodazole-arrested and released); anti-BRCA1 IgG or control IgG, protein A/G Sepharose beads, overnight at 4 °C; Western blot.

By UniProt entry, the sequences of proteins in these tests, tags left out.
UniProt P38398: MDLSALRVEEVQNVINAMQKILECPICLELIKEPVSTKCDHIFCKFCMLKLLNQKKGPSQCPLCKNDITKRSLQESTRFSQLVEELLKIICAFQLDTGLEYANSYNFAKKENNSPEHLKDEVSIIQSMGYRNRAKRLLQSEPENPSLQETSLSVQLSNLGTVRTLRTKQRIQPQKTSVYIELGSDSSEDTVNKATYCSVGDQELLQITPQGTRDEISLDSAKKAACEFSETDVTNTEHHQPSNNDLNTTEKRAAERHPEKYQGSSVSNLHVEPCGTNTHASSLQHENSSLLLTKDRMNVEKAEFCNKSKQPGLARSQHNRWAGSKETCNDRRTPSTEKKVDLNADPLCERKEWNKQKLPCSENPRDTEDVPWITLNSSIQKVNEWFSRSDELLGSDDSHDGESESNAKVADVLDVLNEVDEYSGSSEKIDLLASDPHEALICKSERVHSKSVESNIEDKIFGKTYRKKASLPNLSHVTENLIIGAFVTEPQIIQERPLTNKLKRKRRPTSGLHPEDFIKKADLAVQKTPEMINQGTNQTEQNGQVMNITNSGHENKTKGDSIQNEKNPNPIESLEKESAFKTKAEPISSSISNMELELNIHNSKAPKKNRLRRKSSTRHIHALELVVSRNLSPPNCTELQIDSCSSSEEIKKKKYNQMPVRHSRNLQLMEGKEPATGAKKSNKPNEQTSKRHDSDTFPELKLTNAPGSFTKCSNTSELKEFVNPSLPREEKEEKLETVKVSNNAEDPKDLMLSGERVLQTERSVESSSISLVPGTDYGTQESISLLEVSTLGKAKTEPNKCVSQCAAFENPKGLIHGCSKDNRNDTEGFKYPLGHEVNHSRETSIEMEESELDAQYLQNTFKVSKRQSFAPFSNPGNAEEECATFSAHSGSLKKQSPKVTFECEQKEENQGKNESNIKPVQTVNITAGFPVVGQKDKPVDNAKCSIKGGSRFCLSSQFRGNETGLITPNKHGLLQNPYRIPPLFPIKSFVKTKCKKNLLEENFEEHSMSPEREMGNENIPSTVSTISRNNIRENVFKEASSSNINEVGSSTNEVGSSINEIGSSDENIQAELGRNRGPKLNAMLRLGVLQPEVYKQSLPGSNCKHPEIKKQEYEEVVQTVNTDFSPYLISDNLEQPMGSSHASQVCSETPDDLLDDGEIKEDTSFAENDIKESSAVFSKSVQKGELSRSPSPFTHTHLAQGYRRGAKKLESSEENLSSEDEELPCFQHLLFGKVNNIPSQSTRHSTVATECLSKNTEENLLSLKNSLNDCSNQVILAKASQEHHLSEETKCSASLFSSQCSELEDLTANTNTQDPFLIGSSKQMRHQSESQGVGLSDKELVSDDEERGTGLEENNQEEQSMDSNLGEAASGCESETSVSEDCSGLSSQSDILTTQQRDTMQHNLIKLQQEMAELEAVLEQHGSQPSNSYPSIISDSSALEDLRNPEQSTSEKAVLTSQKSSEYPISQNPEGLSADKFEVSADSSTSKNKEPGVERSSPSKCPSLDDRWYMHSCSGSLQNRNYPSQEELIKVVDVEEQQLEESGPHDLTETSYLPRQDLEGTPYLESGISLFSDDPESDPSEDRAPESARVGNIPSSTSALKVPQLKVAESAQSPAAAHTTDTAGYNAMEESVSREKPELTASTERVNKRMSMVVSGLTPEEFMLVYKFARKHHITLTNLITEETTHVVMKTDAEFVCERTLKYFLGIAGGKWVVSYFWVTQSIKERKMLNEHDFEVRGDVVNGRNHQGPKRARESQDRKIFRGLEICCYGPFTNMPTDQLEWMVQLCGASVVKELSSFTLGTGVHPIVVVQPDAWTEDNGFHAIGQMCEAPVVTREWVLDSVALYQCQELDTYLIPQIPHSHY
UniProt P14635: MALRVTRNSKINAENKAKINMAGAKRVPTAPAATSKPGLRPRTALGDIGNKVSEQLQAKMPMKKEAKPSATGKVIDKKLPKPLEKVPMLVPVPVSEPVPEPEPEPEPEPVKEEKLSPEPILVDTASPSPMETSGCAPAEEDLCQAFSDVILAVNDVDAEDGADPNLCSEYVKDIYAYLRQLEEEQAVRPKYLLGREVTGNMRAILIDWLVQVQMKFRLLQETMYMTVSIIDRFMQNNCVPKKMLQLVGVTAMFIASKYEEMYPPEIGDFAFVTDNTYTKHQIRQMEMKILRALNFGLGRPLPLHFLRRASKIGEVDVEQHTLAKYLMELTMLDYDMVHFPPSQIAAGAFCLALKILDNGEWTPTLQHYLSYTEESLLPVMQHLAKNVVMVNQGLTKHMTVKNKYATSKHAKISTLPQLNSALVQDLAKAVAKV

Results are given in words; binding and its absence hold for the method and conditions named. Binding seen in cells or lysates may run through a third protein. Some results given as binding are weak or reduced against the parent protein; the word gives no strength.

In the case of “cyclin B1 (endogenous, MCF7) (from UniProt P14635 1-433)”, the binding result was “binds”.

Source of the values: publication PMC6191436.
